# From patent US20200010756A1, “SURFACTANT FOR ENHANCED OIL RECOVERY” (Total S.A., priority 2017, published 2020)
# Assay: slim tube co-injection with CO2 at different salinities, emulsion generation
# Conditions: 0.2 wt %, co-injected with CO2
compound,measurement,setting,value
"CCCCCCCCCCCCNCCCN(C)C [Compound E, N^1-dodecyl-N^3,N^3-dimethylpropane-1,3-diamine]",generation of a strong emulsion,"pH 6, 220 g/L NaCl brine",can be readily generated
same,generation of a strong emulsion,"pH 6, deionized water (salinity=0)",cannot
